# Reference: the supplement of paper PMC3334620
# Whole data set: some 33,000 sequences, median “E-score (-0.5 to 0.5)” near -0.015, cut for the highest 2% near 0.3. The list shows a part of the results.
# Molecular target: T1, Abf1 (UniProt P14164)
# T1 sequence: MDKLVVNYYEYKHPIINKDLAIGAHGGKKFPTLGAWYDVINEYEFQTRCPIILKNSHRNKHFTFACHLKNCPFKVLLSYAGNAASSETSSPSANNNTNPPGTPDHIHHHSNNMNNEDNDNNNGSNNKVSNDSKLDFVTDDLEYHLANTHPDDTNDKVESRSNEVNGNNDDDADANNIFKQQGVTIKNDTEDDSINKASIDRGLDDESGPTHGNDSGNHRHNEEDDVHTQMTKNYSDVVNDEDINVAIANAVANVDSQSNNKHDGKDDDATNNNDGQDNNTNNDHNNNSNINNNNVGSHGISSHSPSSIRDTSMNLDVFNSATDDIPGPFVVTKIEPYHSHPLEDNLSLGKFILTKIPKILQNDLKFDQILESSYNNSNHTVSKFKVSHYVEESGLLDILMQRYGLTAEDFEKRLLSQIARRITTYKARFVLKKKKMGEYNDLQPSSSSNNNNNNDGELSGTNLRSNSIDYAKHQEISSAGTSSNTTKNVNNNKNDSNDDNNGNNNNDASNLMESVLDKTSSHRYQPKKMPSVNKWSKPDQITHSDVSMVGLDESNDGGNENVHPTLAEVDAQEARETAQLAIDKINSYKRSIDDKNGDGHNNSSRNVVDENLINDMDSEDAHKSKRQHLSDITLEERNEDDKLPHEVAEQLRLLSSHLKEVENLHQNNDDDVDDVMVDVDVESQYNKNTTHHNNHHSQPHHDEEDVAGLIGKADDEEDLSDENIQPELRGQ
# Test: PBM E-score (8-mer binding enrichment) (E-score (-0.5 to 0.5)); higher = stronger / more preferred TF binding
# Settings: protein concentration: 200 nM; construct: GST-full length
# Procedure, shortened: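 For each ungapped eight-base word taken together with its reverse complement, the Universal PBM Analysis Suite assigned an E-score. Binding data came from GST-tagged yeast transcription factors, applied at about 100-200 nM, on universal all-10-mer Agilent arrays made double-stranded by primer extension. Fluorescent anti-GST marked bound protein, and scans were normalised with masliner.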
row,Sequence,PBM E-score
1,TACGAAGA,0.334
2,AGCTTACT,0.0678
3,CAAGAGTG,-0.0854
4,CGTCAACA,0.0216
5,AGCTTAGA,-0.0458
6,AGGTGATA,0.357
7,CCAGAAAG,-0.0391
8,CACCCGGG,-0.108
9,ACATATTG,0.0417
10,AAGGCAGC,-0.103
11,AGGCACCC,-0.341
12,CCGGGCAC,-0.151
13,ATCAATCG,0.0642
14,CAGCAACA,0.00765
15,CGATGGTC,0.0507
16,CATAATGA,0.18
17,GGGCCCGA,-0.0496
18,ATTCGGAG,-0.0266
19,CCTTGTAG,-0.0444
20,AGCTCTTC,0.0624
21,ATCGACTG,-0.0459
22,TATTTACA,0.0789
23,CTCCCCCC,-0.351
24,CTCTCAAG,-0.0784
25,ATTGTGCA,0.0876

row,Sequence,PBM E-score
1,GAAGTCAC,0.211
2,ATGAGGTC,0.152
3,AGTGGTCA,0.159
4,CAAACGAA,0.145
5,ACTCAAAG,0.0179
6,CCACCCGG,-0.115
7,AACAAACT,0.0627
8,CTCAGCGA,0.099
9,CCTCGACC,-0.181
10,AGCAAGCC,-0.0902
11,CCGGATGA,-0.024
12,AAGCGTGA,0.16
13,ACATGCAG,0.0575
14,CTACCGAG,-0.167
15,CTTTAATA,0.0795
16,AGACAAAC,-0.0166
17,CGTCGAAC,0.246
18,AATAGGCC,-0.237
19,AACAGGTA,0.0666
20,CTAGTGGC,-0.065
21,AAATTTGG,-0.017
22,ATGAGTCC,-0.166
23,ATAAGCGC,-0.0316
24,CAGTTCCG,0.0263
25,CTGCACTC,-0.232

row,Sequence,PBM E-score
1,AGACCCCG,-0.0859
2,AGAGCCAT,-0.115
3,GCCAGTCC,-0.308
4,CGCGGCAG,0.0374
5,GACAAAGC,0.0771
6,AATGAGGG,-0.252
7,CTTGCACA,0.0331
8,CCCACGTC,0.0793
9,GATCGAGC,-0.0632
10,GACCCCTA,-0.262
11,ACTGTTTC,0.0348
12,AGCCCGAC,-0.214
13,ACCTATCT,-0.00941
14,ACGCGTAT,0.104
15,GGAGTAGA,-0.0393
16,TATCGATA,-0.105
17,ACCTGGAT,-0.113
18,AGCCTAAG,-0.0931
19,CACACAGA,-0.0416
20,GTTGTCTA,0.0596
21,ATCGACAG,-0.0272
22,CGTCTAAG,0.148
23,AACCTATA,0.0575
24,AGCTGGTC,-0.045
25,CTTGTCGA,0.01

row,Sequence,PBM E-score
1,CCAAGACG,-0.0818
2,ACTGTCCA,0.0342
3,ACAACGAG,-0.0816
4,ATGCGGTA,-0.0963
5,TATTACAA,-0.006
6,CCGTCTGC,0.146
7,AAATGTCG,0.0708
8,AGCCAAAT,-0.0482
9,AATCTCAT,0.159
10,CAGTCACA,0.134
11,CTAGGGGA,-0.123
12,CTGGTGTC,-0.221
13,CTCGACAG,-0.149
14,AAGGAGCA,-0.13
15,CACAATCC,0.0428
16,ACTCACGA,0.188
17,ATTTTTAG,0.0116
18,GACACTGC,-0.206
19,CCATAACC,-0.129
20,GAGCTGCC,-0.0575
21,CGGAAAGA,-0.131
22,CCAAACTA,-0.0694
23,AACGAACT,-0.0418
24,TCGTCGCA,0.322
25,ACGATAGT,0.246

row,Sequence,PBM E-score
1,CTGGGGGC,-0.346
2,ATGAGGCG,-0.0899
3,ATCGGTTG,-0.136
4,AGCAACGG,0.136
5,AGCAATGA,0.124
6,GGAGTTCA,-0.122
7,TGATCACA,0.292
8,CGAATTCA,-0.0237
9,CCTACGTA,-0.0223
10,CTGGATCA,0.0261
11,AAATGGCG,-0.103
12,AGCCAGGC,-0.0346
13,CGGCAATA,0.166
14,TAGAACTA,-0.165
15,ACGTCCAT,-0.0592
16,AGGTGATC,0.276
17,GAGGGTAC,-0.115
18,AGCCGGTG,-0.072
19,ATCCTACC,-0.0668
20,CTCGCAGA,-0.217
21,ACGTATTA,0.258
22,GGGTTACA,0.0284
23,CACTCGTA,0.25
24,TCCGCTCA,-0.188
25,ATTGAAAC,-0.00069

# A run of entries taken from the entries so far, for reference:
row,Sequence,PBM E-score
17,ATTTTTAG,0.0116
18,GACACTGC,-0.206
19,CCATAACC,-0.129
20,GAGCTGCC,-0.0575
21,CGGAAAGA,-0.131
22,CCAAACTA,-0.0694
23,AACGAACT,-0.0418
24,TCGTCGCA,0.322
25,ACGATAGT,0.246
1,CTGGGGGC,-0.346
2,ATGAGGCG,-0.0899
3,ATCGGTTG,-0.136
4,AGCAACGG,0.136
5,AGCAATGA,0.124
6,GGAGTTCA,-0.122
7,TGATCACA,0.292
8,CGAATTCA,-0.0237
9,CCTACGTA,-0.0223
10,CTGGATCA,0.0261
11,AAATGGCG,-0.103
12,AGCCAGGC,-0.0346
13,CGGCAATA,0.166
14,TAGAACTA,-0.165
15,ACGTCCAT,-0.0592
16,AGGTGATC,0.276
17,GAGGGTAC,-0.115
18,AGCCGGTG,-0.072
19,ATCCTACC,-0.0668
20,CTCGCAGA,-0.217
21,ACGTATTA,0.258
22,GGGTTACA,0.0284
23,CACTCGTA,0.25
24,TCCGCTCA,-0.188
25,ATTGAAAC,-0.00069

# Next entries:

row,Sequence,PBM E-score
1,ACTAATGA,0.212
2,GGAATTGA,0.0258
3,CAGGATTC,-0.0145
4,GCACCTTA,-0.171
5,ACTTAGAG,-0.136
6,CGGACTAC,0.0179
7,CAGCAGGC,0.0485
8,CGGCCACG,-0.17
9,CGATCACG,0.298
10,CGCGAAGC,0.115
11,ACAGTCTC,-0.177
12,AGCGCAGG,-0.248
13,AGTACATG,-0.0104
14,GTAGTCGA,0.0326
15,ATTACTGG,0.00696
16,ACTATGTG,-0.0226
17,ACCTGACA,-0.0449
18,GGGTGTAC,-0.0838
19,CCGGATCC,0.0159
20,CCCAGTCA,-0.244
21,GATAAAGC,0.182
22,AAGCATGT,-0.0132
23,ACTTCCGG,-0.00584
24,CAGCGGTC,-0.247
25,ACCTGAAA,-0.0644

row,Sequence,PBM E-score
1,AAGGGAGC,-0.196
2,AAGCCCGT,-0.0265
3,CTTCAGCA,-0.126
4,GTCTTGAA,0.211
5,AAGACTAG,-0.15
6,ATCTTTGA,0.108
7,GCCGACAA,-0.0875
8,ACCCGATG,-0.0462
9,GCACAGCC,-0.204
10,TAAAAACA,0.239
11,TGGGTAAA,-0.165
12,CCAAACGC,-0.0153
13,GACTCCGA,-0.261
14,GAGAAATC,0.23
15,ACGTCTCC,0.00365
16,CGGCGACA,0.107
17,ACGTTGTG,-0.0356
18,AATGGGAG,-0.261
19,AATAAACA,0.069
20,AGGTGGGA,-0.192
21,ACCGCTGA,-0.057
22,GGCATATA,0.151
